Reference: the supplement of paper PMC6445147
Single values of this data set are uncertain.

B1: human tRNA-Pro; a variant is named by its letters at N, in order (parent)
chain: GGCTCGTTGGTCTAGNGGTATGATTCTCGCTTAGGGTGCGAGAGGTCCCGGGTTCNNATCCCGGACGAGCCC

Variants of: B1
Experiment: tRNA 3' processing efficiency (processed reads / all reads, maximum-likelihood estimate) (fraction); higher = more efficient 3' processing
Settings: HEK293T; construct: no Pol-II promoter ((-)CMV library)

Variant | tRNA 3' processing efficiency
CAG T8C A58T | 0.29
TAG G17T A58G T59G | 0.33
TCA A14T T59G | 0.62
CAG T8C A14T | 0.62
CAG T8C A14G | 0.25
GAT T8C A58T T59C | 0.5
TAT G18A T19C T59G | 0.29
TAC G9A G15A A20C | 0.17
GAG G15C T19A A20T | 0.13
CAT G50A T59A | 0.32
GAG G15C T19A T59A | 0.25
CAT G9T A23T | 0.2
ACA A14C T19A | 0.39
AAC T19G T53A A58G | 0.58
GCA G17A G18A A58G | 0.7
TAT G9A A14G | 0.27
TAT A14T G15C | 0.25
GAT G2T | 0.45
AAT A14T G15A T19G | 0.4
TAT T19C A20C | 0.5
GAG G15C G17T T19G A58T | 0.25
GAG G42A | 0.4
AAG A14C A20G | 0.14
GAT T46C | 0.57

Variant | tRNA 3' processing efficiency
CCA A20G T59A | 0.23
CCA G15C A20C A58G T59G | 0.33
CAT G9T A33G A58T | 0.33
AAG A14G G15A | 0.07
GCA A14C T19A | 0.29
CAT G18C T59G | 0.25
GAG T19A A20C A58T | 0.38
GAG T19A C39T | 0.25
GAC T19A T59C | 0.29
CCA T19A A58T | 0.4
CAT A14T A58T | 0.4
GAG T8G G15A G17C | 0.2
GAC G15C T59G | 0.5
GCA A14T A20T A58T | 0.5
TAT G9A G15T | 0.78
CAT A14C G15A G17C | 0.25
TAT G22A | 0.73
GAT G36A | 0.25
GAT G9A G15C | 0.25
GAT A14G A20T G51A | 0.33
AAG A20G T59C | 0.25
GAG T19C A20T A58G T59C | 0.36
GAT G1C C3G A14C G17C G18C T19A | 0.43
GCA T8A G15T G18A | 0.25

Laid out differently: entries from further up.
Variant	tRNA 3' processing efficiency
GAC G15C T59G	0.5
GCA A14T A20T A58T	0.5

Additional entries:

Variant | tRNA 3' processing efficiency
GCA T7A T19C A58G | 0.4
TAG T8C G15A T59C | 0.2
GAT T8C T19A T59G | 0.43
AAC A14G A20T | 0.4
CAT G9C T59G | 0.43
GCA A14T G15T G18A | 0.33
GAG G17A G18A T54A | 0.44
GAC G18A T19C A20T | 0.25
GAT T8C A14G A58G | 0.5
GAG A14G A20C A58G | 0.2
CAT T59C C70T | 0.4
GAT T8G G9T G15C T54G A58C | 0.11
GAG T8A G15C A58T | 0.2
GAC G15A G18A T59A | 0.4
CCA G9C T19A | 0.56
TAT G9A T19G | 0.25
TAG G9C A20C | 0.25
GAG T8G G15T G17C G51A | 0.4
TAG G9A A14T A20T | 0.57
CCA A14T T59G | 0.2
GAC A14T G15C T19G | 0.4
GAG A14C G15A G17T | 0.29
GAG G18A T19G A58T | 0.25
GCA A14G A20T A58G T59G | 0.73

Variant | tRNA 3' processing efficiency
GAT G9A A14T G18A A20T | 0.25
CAC A14G G15A | 0.73
TAT A14T T19G | 0.5
GAG A14T G18A T59C | 0.43
TAC A14T G15C | 0.5
TAG T19A T59C | 0.5
AAC A14C A58C | 0.13
CAT A14G G18A | 0.56
GCA A14C A58G | 0.33
GAT G51T | 0.29
TAT G51A | 0.57
GAT G9T G15T G18T T19C | 0.25
GAC G18A T59C | 0.14
TAG T19C A20C A58G T59A | 0.25
GAT A43T | 0.17
GAC T8G A14C | 0.25
GAG T19G T53A T59A | 0.75
GAG A14T T19G G51T A58T | 0.33
TAT G44T | 0.25
GAT G15C G51A | 0.5
GAT T19A A58C T59G | 0.25
TAG T8C A58T | 0.4
CAT G9T A14T G15C | 0.5
GCA T8G A14C G18C | 0.57

Variant | tRNA 3' processing efficiency
GCA G9A A14C G17T C55A | 0.25
GAC T8G G40A | 0.5
CCA A14C T19G | 0.4
AAT T19G T59G | 0.5
GCA A14C T19G A41C A58T | 0.57
GAC G9A A20G A58G | 0.25
GAT G17T G18C T31A | 0.25
AAG G15A A20T T59C | 0.55
GAG T8C A14C T59A | 0.62
GCA G15A T19A A58T | 0.25
TAG A33G | 0.2
GAT G15T G18T A20C | 0.25
CAT G9A A14C G18C | 0.43
TAC T8C A14T A20G | 0.75
AAG T8C G15T A58C | 0.18
CAT A20C T59A | 0.75
GCA A14G G17A G18C A20G T59G | 0.25
CCA A20T C71T | 0.4
TCA A14T A20G T59G | 0.43
GAC A14G G18A T59G | 0.25
GAT A14G G15C | 0.55
GAT T8C A14G T59G | 0.33
TAT G15A G17T A20G | 0.17
TCA T19A T59A | 0.2

For reference, part of the list above:
Variant | tRNA 3' processing efficiency
CCA A14C T19G | 0.4
AAT T19G T59G | 0.5
GCA A14C T19G A41C A58T | 0.57
GAC G9A A20G A58G | 0.25
GAT G17T G18C T31A | 0.25
AAG G15A A20T T59C | 0.55

Further records

Variant | tRNA 3' processing efficiency
TCA T19A T59G | 0.83
AAC G50A | 0.25
TAG T19A G22T | 0.17
TAT G9A A14T T19G | 0.11
GAG T19C A58C | 0.56
CAT A14T T19C A58G | 0.25
CAT T19A A20C T59C | 0.25
TAC A14T A20G | 0.29
GAG T8G A14G G17T G18T | 0.4
CAG T8G A14G G18C | 0.25
TAG T8G G18C A58G | 0.75
CAT T8A G15A | 0.25
GAG A33G | 0.5
TAT G9T T19C T59C | 0.5
GAC A14C G17T T19A | 0.5
GAC G9A A58T T59A | 0.33
CAA T59G G63A | 0.5
GCA G15C T19A | 0.08
CAG G15C G18A | 0.43
TAG T19C A20C A58T | 0.2
TAG G9A A14T T19A A20G | 0.2
CAT T8C A14C A58G | 0.5
GAC A43C | 0.2
ACA A14G G18T T19C A58G | 0.25

Variant | tRNA 3' processing efficiency
GAT T19A C28T T59G | 0.25
TAC A14T A20G A58G | 0.17
GAC A20T G51A A58G | 0.5
GAG T19G A20C A58T T59C | 0.25
TAG T8G A20C | 0.25
CAT T19C A20G A58G | 0.4
GAT G51A A58T | 0.43
TAT G15C A58T | 0.38
ACA A14T G17T A20G C55T | 0.57
GAG G1T G17C A20T T59C | 0.2
GAT G15A G17C A58T | 0.25
GAT A14G G15A T19G | 0.4
GAC A14C T19A G34A | 0.2
GAC A14C G18A T19C | 0.25
GAG G15A G17A A58T | 0.89
AAC G1T C5T G6T A14C A58G | 0.57
GCA G2A C3G T7G | 0.6
GAG T8G A14T G15C | 0.25
GCA T8A G17T A58T T59C | 0.33
GAC T8G A14T G15C G17T | 0.14
AAT T8A A20T | 0.5
GAC T8C A14T T19G A33G | 0.33

Variants of: B1
Experiment: tRNA 5' processing efficiency (processed reads / all reads, maximum-likelihood estimate) (fraction); higher = more efficient 5' processing
Settings: HEK293T; construct: CMV Pol-II promoter ((+)CMV library, decapped)

Variant | tRNA 5' processing efficiency
GCA G15C T19A | 0.25
